Measurements published in patent US20160237160A1, “ANTI-TWEAKR ANTIBODIES AND USES THEREOF” (BAYER PHARMA AKTIENGESELLSCHAFT, priority 2013, published 2016).
Changes are numbered by the printed parent chain. Names may count otherwise. No constants are given. Whether binding was seen depends on the method and setting. Some entries that bind do so weakly or less than the wild type. Blank lines part the entries; values can stand above or below the binder they belong to.

Legend:
[1] = biological target: TPP-599 (HUMAN-TNFRSF12Aaa28-80-hIgG1-Fc) (human); assay: ELISA, 2.5 nM biotinylated TWEAKR-Fc coated, soluble Fab, anti-c-Myc detection
[2] = biological target: TPP-1984 (hTNFRSF12Aaa28-68-CT-His) (human); assay: ELISA, TPP-1984 coated at 1 µg/ml, biotinylated IgG at 0.08 and 0.3 µg/ml, Streptavidin-HRP, Amplex Red

binding [1]: binds
B1: TPP-883 Fab variant S36G of CDR-L1 (Fab, V domains shown)
VH: EVQLLESGGGLVQPGGSLRLSCAASGFTFSPYPMMWVRQAPGKGLEWVSYISPSGGKTHYADSVKGRFTISRDNSKNTLYLQMNSLRAEDTAVYYCARGGDGYFDYFDYWGQGTLVTVSS
VL: DIQMTQSPATLSASVGDRVTITCRASQSISGYLNWYQQKPGKAPKLLIYAASSLQSGVPSRFSGSGSGTDFTLTISSLQPEDFATYYCQQSYSSPGITFGPGTKVEIK

binding [1]: binds
B2: TPP-883 Fab variant M35I of CDR-H1 (Fab, V domains shown)
VH: B1 VH with M35I
VL: B1 VL with G31S

binding [2]: no binding (tested: 0.3 µg/ml)
B3: P4A8(TPP-1324) (antibody, human IgG1, kappa, V domains shown)
VH: QVQLVQSGAEVKKPGASVKVSCKGSGYTFTDYGMHWVRQAPGQGLEWMGVISTYNGYTNYNQKFKGRVTMTVDKSTSTAYMELRSLRSDDTAVYYCARAYYGNLYYAMDYWGQGTLVTVSS
VL: DIVLTQSPASLAVSLGQRATISCRASKSVSTSSYSYMHWYQQKPGQPPKLLIKYASNLESGVPARFSGSGSGTDFSLNIHPMEEDDTAMYFCQHSRELPFTFGGGTKLEIKR
